Assay results reported in the supplement of paper PMC10849652.
The other results are listed elsewhere or left out.

Chains of the proteins cited; added tags and fusions are not shown. Lines headed by an entry give the natural chain unless they say otherwise; changes in a name come on top.
UniProt Q04726: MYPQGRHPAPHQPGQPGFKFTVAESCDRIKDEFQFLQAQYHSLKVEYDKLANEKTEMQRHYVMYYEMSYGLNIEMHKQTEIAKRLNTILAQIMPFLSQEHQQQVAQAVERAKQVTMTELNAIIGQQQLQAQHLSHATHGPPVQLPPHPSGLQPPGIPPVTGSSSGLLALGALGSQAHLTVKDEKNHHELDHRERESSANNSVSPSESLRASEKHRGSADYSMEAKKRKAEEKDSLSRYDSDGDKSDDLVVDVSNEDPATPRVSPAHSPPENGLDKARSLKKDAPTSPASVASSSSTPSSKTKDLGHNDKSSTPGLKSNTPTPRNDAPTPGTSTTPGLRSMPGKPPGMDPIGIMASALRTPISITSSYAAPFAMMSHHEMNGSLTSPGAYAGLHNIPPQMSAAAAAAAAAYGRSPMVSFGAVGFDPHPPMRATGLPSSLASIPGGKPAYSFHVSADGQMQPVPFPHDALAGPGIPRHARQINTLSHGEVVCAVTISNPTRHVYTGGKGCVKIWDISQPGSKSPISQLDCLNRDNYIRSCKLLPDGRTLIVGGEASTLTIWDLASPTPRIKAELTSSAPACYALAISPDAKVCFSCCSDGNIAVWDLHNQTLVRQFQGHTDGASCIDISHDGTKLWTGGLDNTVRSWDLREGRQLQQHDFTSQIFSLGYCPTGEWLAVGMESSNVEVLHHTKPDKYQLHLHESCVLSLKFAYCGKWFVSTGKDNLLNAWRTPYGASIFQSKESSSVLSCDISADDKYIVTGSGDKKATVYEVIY
UniProt Q3LXA3: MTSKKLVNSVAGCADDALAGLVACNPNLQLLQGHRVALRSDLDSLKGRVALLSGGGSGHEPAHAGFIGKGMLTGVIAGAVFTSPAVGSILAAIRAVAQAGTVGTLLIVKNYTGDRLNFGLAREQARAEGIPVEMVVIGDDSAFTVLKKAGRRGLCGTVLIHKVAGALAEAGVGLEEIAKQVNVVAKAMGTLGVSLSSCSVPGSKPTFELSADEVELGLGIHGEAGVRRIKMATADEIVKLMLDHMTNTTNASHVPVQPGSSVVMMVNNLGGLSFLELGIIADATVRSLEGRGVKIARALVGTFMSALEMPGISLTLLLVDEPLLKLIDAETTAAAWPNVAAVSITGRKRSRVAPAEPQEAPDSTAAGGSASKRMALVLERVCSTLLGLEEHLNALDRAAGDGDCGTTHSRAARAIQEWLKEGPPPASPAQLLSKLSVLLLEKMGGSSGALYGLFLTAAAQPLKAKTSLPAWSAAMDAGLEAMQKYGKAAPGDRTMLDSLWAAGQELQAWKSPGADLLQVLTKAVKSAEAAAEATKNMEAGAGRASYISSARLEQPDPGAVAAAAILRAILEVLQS
UniProt Q9P2M4: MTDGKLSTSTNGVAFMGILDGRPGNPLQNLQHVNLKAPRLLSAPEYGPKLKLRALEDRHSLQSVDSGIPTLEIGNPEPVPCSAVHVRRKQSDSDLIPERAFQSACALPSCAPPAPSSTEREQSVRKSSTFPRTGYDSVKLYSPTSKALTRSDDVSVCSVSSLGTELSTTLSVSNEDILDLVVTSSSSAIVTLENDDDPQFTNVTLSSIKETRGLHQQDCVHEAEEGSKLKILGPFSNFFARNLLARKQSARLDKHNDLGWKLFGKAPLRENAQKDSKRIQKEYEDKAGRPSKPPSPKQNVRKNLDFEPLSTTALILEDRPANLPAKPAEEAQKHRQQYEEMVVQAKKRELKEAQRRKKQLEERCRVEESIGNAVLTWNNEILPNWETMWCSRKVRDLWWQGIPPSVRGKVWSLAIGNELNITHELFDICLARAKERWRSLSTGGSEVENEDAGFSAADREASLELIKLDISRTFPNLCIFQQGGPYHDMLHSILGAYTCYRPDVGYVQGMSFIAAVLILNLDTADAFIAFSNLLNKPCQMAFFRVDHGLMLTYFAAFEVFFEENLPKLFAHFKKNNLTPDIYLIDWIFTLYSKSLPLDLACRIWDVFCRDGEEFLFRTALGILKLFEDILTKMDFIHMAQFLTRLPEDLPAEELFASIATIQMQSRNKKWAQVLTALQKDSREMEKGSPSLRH
UniProt Q9NQ88: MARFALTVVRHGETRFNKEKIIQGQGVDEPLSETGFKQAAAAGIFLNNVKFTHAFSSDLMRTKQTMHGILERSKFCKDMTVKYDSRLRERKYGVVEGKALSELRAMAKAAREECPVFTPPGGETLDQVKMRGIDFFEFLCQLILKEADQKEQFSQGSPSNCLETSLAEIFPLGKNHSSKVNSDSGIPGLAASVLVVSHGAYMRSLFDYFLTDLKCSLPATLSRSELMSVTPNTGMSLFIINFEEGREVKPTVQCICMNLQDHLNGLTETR
UniProt Q13428: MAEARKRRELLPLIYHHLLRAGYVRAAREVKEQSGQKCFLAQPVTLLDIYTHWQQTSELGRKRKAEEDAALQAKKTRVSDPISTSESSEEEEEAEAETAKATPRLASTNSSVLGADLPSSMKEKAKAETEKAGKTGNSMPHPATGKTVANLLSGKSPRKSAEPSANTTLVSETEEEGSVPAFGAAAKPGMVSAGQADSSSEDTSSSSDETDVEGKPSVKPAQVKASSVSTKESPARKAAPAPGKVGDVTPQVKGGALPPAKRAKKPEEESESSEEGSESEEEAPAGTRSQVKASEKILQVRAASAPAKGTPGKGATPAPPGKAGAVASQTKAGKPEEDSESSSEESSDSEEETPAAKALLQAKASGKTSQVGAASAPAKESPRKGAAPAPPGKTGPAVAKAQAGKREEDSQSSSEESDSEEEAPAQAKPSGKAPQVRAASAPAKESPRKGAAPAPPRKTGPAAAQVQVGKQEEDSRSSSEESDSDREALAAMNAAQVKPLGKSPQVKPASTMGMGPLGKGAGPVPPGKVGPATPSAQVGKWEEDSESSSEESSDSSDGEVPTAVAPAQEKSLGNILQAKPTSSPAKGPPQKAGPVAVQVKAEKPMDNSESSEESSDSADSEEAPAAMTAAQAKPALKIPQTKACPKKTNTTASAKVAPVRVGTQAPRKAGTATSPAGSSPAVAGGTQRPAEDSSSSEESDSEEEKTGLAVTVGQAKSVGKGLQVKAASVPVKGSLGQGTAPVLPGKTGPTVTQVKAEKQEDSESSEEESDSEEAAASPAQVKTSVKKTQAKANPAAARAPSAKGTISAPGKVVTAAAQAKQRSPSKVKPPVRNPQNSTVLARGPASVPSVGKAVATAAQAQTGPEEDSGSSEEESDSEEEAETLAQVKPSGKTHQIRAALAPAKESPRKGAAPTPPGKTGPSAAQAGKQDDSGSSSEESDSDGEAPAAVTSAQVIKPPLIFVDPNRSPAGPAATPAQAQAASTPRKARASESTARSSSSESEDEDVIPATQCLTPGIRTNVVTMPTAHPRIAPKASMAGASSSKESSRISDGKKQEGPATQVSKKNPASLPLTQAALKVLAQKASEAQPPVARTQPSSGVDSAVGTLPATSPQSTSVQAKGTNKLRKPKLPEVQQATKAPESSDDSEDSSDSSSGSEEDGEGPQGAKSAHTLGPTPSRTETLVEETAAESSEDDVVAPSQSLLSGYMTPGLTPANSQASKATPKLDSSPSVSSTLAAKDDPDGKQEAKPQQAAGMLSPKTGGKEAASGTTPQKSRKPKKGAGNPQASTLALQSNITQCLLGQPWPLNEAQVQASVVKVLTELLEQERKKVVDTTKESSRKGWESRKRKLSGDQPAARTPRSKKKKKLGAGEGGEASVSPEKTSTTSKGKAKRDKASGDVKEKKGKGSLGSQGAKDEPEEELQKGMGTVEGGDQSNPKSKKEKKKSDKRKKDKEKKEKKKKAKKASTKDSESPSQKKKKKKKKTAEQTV
UniProt Q9P0N9: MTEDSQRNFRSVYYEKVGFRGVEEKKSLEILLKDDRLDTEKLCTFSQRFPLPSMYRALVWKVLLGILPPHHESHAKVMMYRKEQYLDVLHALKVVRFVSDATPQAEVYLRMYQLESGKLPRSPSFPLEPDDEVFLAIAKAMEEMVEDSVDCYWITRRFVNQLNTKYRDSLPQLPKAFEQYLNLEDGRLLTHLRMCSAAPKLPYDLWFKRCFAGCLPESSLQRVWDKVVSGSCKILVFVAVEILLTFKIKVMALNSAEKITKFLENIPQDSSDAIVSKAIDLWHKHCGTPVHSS

Assays:
Assay in all cases: log2 fold change, soluble protein after heating vs DMSO (PISA); higher = thermal stabilisation; K562 cells, 10 uM, 30 min; active = over 0.2 and 3.5 SD of the protein, either way, in both replicates (recomputed)
[1] = compound: NC(=O)Nc1cc(-c2cccc(F)c2)sc1C(=O)N[C@H]1CCCNC1
In short: (§1)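 Thermal stability values are relative to control samples and come from duplicates. They are expressed as log2 fold changes. For measurement, K562 cells (2×10^6 cells/mL) received 10 μM compound for 30 min, and aliquots were heated for 3 min over 48°C-58°C, pooled, and extracted at 4°C in PBS with 0.5% NP-40. Soluble protein, the supernatant after 21,000xg for 90 min, was quantified by TMTpro 16plex LC-MS/MS with equalised channel sums.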

[2] = compound: NC(=O)c1cnc(N[C@@H]2CCCC[C@@H]2N)nc1Nc1cccc(-n2nccn2)c1
In short: as §1

[3] = compound: NC1(c2ccc(-c3nc4ccn5c(=O)[nH]nc5c4cc3-c3ccccc3)cc2)CCC1
In short: as §1

[4] = compound: NCC(=O)Nc1ccc(-n2nc(C(F)(F)F)cc2-c2ccc3c(ccc4ccccc43)c2)cc1
In short: as §1

[5] = compound: Nc1ccccc1NC(=O)c1ccc(CNC(=O)OCc2cccnc2)cc1 [entinostat]
In short: as §1

[6] = compound: O=C(CCCCCCC(=O)Nc1ccccc1)NO [vorinostat]
In short: as §1

[7] = compound: O=C(CCCCCCNC(=O)c1cnc(N(c2ccccc2)c2ccccc2Cl)nc1)NO [citarinostat]
In short: as §1

[8] = compound: O=C(O)c1ccc2c(c1)nc(Nc1cccc(Cl)c1)c1ccncc12 [silmitasertib]
In short: as §1

[9] = compound: O=C1NC(=O)C(c2cnc3ccccn23)=C1c1cn2c3c(cc(F)cc13)CN(C(=O)N1CCCCC1)CC2
In short: as §1

[10] = compound: c1cc(OCCN2CCCCC2)cc(-c2n[nH]c3ccc(-c4nnc[nH]4)cc23)c1
In short: as §1

[11] = compound: c1cn2cc(-c3ccc4cn[nH]c4c3)nc(Nc3ccc(N4CCOCC4)cc3)c2n1 [entospletinib]
In short: as §1

Measured: log2 fold change

TLE3 isoform 4 (UniProt Q04726)
inactive: [1] 0.028 | [2] -0.026 | [3] -0.006 | [4] 0.021 | [5] -0.048 | [6] 0.037 | [7] 0.034 | [8] -0.015 | [9] -0.063 | [10] 0.008 | [11] -0.007

TKFC (UniProt Q3LXA3)
inactive: [1] 0 | [2] -0.003 | [3] -0.027 | [4] 0.018 | [5] -0.02 | [6] -0.077 | [7] 0.038 | [8] -0.039 | [9] -0.063 | [10] 0.009 | [11] -0.01

TBC1D14 (UniProt Q9P2M4)
inactive: [1] -0.545 | [2] -0.033 | [3] 0.013 | [4] 0.091 | [5] 0.306 | [6] -0.104 | [8] 0.144 | [9] 0.098

TIGAR (UniProt Q9NQ88)
inactive: [6] 0.081

TCOF1 isoform 3 (UniProt Q13428)
inactive: [1] 0.283 | [5] 0.008 | [6] 0.205 | [7] 0.105 | [9] 0.067 | [10] -0.146

TBC1D7 (UniProt Q9P0N9)
inactive: [1] -0.218 | [5] -0.012 | [9] 0.284
